We go through one molecule from article PMC9839713, “Arabidopsis DXO1 activates RNMT1 to methylate the mRNA guanosine cap” (Nature Communications, 2023).

The target of the test is BD-cDXO1 (C-terminal part of DXO1 without the N-terminal extension) (Arabidopsis thaliana). Nature of the test: two-hybrid; pairwise: one protein as BD fusion (pGBKT7), the other as AD fusion (pGADT7) in yeast Y2H Gold; growth on -Leu -Trp -His -Ade with AbA (and X-alpha-Gal in some), 3 days at 30 °C.

No constants are given. Whether binding was seen depends on the method and setting. Sequences can lack the tags named with a protein.

B1: GST-RNMT1 (natural protein, Arabidopsis thaliana, UniProt Q9LHQ7 1-370, looked up)
chain: MKRGFSDSPSSSAPPPSSRFKSNPEGDSQFLEDETTKNFARKVADHYSRRTNQTLEEREASPIIHLKKLNNWIKSVLIQLYARPDDAVLDLACGKGGDLIKWDKARIGYYVGIDIAEGSIEDCRTRYNGDADHHQRRKKFSFPSRLLCGDCFEVELDKILEEDAPFDICSCQFAMHYSWTTEARARRALANVSALLRPGGVFIGTMPDANVIIKKLREAEGLEIGNSVYWIRFGEEYSQKKFKSSSPFGIEYVFHLEDAVDCPEWIVPFNVFKSLAEEYDLELVFVKNSHEFVHEYMKKPEFVELMRRLGALGDGSNDQSTLSADEWEAAYLYLSFVLRKRGESDGARRSGRRKNGKMNLSKDDVLYIDS
notes: The methods name a 'GST-DXO1' fusion in pGEX-4T-1 and RNMT1 in pET28a, while results, legend and pull-down methods use GST-RNMT1; In the functional rows the RNMT1 was the recombinant protein from pET28a (6X His); also called GST-tagged RNMT1; source: E. coli BL21 Rosetta, purified (GST agarose beads); not shown: GST, N-terminal, kept
For B1, the binding entry was “no binding”.
